We go through six molecules from publication doi:10.1101/2023.02.23.529725.

Amino acid sequences for entries named in this document (tags omitted). Residues count along the entry.
UniProt Q84WU8, residues 84-809: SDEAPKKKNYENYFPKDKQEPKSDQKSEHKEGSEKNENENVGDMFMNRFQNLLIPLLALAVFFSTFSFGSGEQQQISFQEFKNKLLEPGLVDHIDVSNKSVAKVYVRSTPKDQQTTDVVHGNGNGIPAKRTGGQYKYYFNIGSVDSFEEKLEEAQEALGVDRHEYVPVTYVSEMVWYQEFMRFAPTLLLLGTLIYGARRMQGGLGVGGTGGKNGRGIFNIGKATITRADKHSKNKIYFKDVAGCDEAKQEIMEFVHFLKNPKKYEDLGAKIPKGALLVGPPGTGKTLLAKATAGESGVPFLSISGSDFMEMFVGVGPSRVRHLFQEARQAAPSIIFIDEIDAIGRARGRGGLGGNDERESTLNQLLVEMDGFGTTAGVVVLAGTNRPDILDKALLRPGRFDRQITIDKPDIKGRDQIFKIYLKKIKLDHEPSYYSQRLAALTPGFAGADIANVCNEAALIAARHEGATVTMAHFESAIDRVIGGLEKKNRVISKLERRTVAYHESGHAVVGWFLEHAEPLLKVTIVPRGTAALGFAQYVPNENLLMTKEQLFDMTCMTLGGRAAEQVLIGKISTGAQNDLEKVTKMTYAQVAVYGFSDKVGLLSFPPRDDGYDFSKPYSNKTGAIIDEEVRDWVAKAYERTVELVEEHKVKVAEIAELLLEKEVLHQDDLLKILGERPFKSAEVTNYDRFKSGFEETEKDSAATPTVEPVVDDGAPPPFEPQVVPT
UniProt O82663, residues 33-634: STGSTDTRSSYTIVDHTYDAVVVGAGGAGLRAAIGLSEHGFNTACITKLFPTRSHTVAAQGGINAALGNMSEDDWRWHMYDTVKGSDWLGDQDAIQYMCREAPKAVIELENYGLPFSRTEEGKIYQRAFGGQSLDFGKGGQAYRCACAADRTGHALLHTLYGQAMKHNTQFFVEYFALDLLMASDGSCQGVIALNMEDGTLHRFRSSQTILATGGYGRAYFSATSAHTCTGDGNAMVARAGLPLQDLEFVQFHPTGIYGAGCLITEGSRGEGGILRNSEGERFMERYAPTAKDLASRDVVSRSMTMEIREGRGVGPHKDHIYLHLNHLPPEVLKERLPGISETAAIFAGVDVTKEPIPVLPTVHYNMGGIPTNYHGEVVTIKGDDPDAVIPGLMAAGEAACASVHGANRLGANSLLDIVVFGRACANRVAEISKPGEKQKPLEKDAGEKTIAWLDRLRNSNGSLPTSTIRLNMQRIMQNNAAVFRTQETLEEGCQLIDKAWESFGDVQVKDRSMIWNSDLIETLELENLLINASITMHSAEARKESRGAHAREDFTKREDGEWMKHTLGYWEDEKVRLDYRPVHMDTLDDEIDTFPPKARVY
UniProt O80983, residues 54-717: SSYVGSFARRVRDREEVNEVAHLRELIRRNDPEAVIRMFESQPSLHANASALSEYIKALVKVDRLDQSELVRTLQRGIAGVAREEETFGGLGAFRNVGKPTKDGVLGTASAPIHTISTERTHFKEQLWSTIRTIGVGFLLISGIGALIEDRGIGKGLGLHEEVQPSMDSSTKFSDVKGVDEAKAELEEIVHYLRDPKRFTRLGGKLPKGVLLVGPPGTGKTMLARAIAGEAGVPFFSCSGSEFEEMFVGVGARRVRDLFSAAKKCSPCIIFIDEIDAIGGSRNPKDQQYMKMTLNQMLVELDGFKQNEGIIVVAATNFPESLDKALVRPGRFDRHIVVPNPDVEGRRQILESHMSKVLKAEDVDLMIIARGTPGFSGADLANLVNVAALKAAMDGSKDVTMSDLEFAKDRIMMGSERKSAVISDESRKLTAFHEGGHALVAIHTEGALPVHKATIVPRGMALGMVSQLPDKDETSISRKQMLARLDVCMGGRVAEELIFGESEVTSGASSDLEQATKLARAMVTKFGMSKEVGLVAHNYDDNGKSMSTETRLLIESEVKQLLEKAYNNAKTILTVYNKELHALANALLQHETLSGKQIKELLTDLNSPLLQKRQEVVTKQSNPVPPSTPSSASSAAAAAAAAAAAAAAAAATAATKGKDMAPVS

These are yes or no findings as the source states them, for the method shown. In cells and extracts the contact can be indirect. Some binding calls cover weakened binding; strength is not graded here. Where a sequence is shown, tags or fusion partners need not be part of it.

First the molecules themselves.
T1: FLAG-tagged CI subunit B14.7 (B14.7^FLAG) (Arabidopsis (Col-0)) (UniProt O48528)
T1 sequence: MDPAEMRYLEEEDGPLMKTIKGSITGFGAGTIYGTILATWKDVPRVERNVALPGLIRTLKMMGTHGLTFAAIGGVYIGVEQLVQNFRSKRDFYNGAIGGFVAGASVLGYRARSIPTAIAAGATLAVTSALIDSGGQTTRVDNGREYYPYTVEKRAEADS

B1: Translocase of the outer membrane TOM40 (protein, UniProt Q9LHE5 1-309)
chain: MADLLPPLTAAQVDAKTKVDEKVDYSNLPSPVPYEELHREALMSLKSDNFEGLRFDFTRALNQKFSLSHSVMMGPTEVPAQSPETTIKIPTAHYEFGANYYDPKLLLIGRVMTDGRLNARLKADLTDKLVVKANALITNEEHMSQAMFNFDYMGSDYRAQLQLGQSALIGATYIQSVTNHLSLGGEIFWAGVPRKSGIGYAARYETDKMVASGQVASTGAVVMNYVQKISDKVSLATDFMYNYFSRDVTASVGYDYMLRQARVRGKIDSNGVASALLEERLSMGLNFLLSAELDHKKKDYKFGFGLTVG
B2: NAD1 complex I subunit (protein, UniProt P92558 1-325)
chain: MYIAVPAEILGIILPLLLGVAFLVLAERKVMAFVQRRKGPDVVGSFGLLQPLADGLKLILKEPISPSSANFFLFRMAPVATFMLSLVAWAVVPFDYGMVLSDLNIGLLYLFAISSLGVYGIIIAGWSSISKYAFLGALRSAAQMVSYEVSIGLILITVLICVGSCNLSEIVMAQKQIWFGIPLFPVLVMFFISCLAETNRAPFDLPEAEAELVAGYNVEYSSMGFALFFLGEYANMILMSGLCTLFFLGGWLPILDLPIFKKIPGSIWFSIKVLFFLFLYIWVRAAFPRYRYDQLMGLGWKVFLPLSLARVVPVSGLLVTFQWLP
B3: COX2 (complex IV subunit) (protein, UniProt P93285 1-260)
chain: MIVLKWLFFTISPCDAAEPWQLGFQDAATPIMQGIIDLHHDIFFFLILILVFVLWILVRALWHFHYKKNAIPQRIVHGTTIEILWTIFPSIILMFIAIPSFALLYSMDEVVVDPAITIKAIGHQWYWTYEYSDYNSSDEQSLTFDSYMIPEEDLELGQLRLLEVDNRVVVPAKTHLRIIVTSADVLHSWAVPSLGVKCDAVPGRLNQISILVQREGVYYGQCSEICGTNHAFMPIVVEAVSRKDYGSWVSNQLIPQTGEA

The target in the assay is T1, FLAG-tagged CI subunit B14.7 (B14.7^FLAG) (Arabidopsis (Col-0)). Briefly: co-IP.
As to “FTSH3 (Filamentous Temperature Sensitive H3), endogenous (from UniProt Q84WU8 84-809) (enzyme)”, the binding result is “binds”.
Under “SDH1 (complex II subunit) (from UniProt O82663 33-634)” stands “no binding”.
Under “FTSH4, endogenous (from UniProt O80983 54-717) (enzyme)” stands “no binding”; under B1, “no binding”.
Under B2 stands “binds”; under B3, “no binding”.
